{"sequences": {"note": "By UniProt entry, the sequences of proteins in these tests, tags left out. Residues count along the entry.", "UniProt P02769, 25-607": "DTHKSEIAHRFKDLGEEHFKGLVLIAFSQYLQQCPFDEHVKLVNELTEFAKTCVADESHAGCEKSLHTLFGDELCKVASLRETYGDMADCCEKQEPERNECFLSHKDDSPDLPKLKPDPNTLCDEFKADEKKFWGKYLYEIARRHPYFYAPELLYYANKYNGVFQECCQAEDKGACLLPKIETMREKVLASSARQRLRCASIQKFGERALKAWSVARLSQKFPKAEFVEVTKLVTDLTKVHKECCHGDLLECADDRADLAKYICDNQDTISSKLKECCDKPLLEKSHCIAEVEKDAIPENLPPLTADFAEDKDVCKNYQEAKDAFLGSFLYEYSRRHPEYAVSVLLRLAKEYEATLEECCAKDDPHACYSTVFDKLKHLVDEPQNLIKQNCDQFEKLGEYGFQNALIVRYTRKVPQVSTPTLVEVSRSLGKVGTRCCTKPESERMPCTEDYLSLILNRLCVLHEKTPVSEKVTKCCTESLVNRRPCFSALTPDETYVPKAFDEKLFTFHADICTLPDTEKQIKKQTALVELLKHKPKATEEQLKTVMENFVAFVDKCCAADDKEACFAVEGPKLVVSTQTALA"}, "source": "patent US20260021154A1", "about": "“HERBAL ANTI-INFAMMATORY COMPOSITION” (CIRA HERBALS LLP, priority 2022, published 2026)", "biological_target": "bovine serum albumin (Bos taurus, UniProt P02769)", "details": "for Inhibition of protein denaturation: bovine, 15 min, pH 7.2", "note": "Read-outs that look alike come from different tables or passages of the source.", "data": [{"smiles": "CC(C)(C(=O)O)c1ccc(C(O)CCCN2CCC(C(O)(c3ccccc3)c3ccccc3)CC2)cc1", "note": "(stereo not drawn) [Fexofenadine]", "values": [{"measurement": "IC50 (50% inhibition of protein denaturation)", "result": 16.83, "unit": "µg"}, {"measurement": "Inhibition of protein denaturation", "setting": "0.2 µg/mL", "result": 4.91, "unit": "%"}, {"measurement": "Inhibition of protein denaturation", "setting": "6.4 µg/mL", "result": 69.75, "unit": "%"}]}]}
